Assay results published in the supplement of paper PMC6078165.

System: Hs578T
Assay: relative JC-1 red fluorescence (viability) vs pre-drug, coculture with fibroblast (fraction); higher = more viable cancer cells
Experimental: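 JC-1 labelled TNBC cells cocultured 1:1 (1,500 cells each) with CellTrace Violet stained primary or stromal fibroblasts in 384-well plates in FluoroBrite medium, treated with one of 42 anticancer drugs at 0.1, 1, 10 or 100 uM. JC-1 red fluorescence (mitochondrial integrity in cancer cells only) was read by plate reader every 8 h for 72 h. Values are normalised to each well's pre-drug value. The stock of one drug was tenfold lower, so its dose labels may be too high.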

CC[C@]1(O)C[C@@H]2CN(CCc3c([nH]c4ccccc34)[C@@](C(=O)OC)(c3cc4c(cc3OC)N(C)[C@H]3[C@@](O)(C(=O)OC)[C@H](OC(C)=O)[C@]5(CC)C=CCN6CC[C@]43[C@@H]65)C2)C1 [Vinblastine]
relative JC-1 red fluorescence
Details | 8 h | 16 h | 24 h | 32 h | 40 h | 48 h | 56 h | 64 h | 72 h
10 µM | 0.892 | 0.838 | 0.802 | 0.736 | 0.664 | 0.64 | 0.643 | 0.609 | 0.617
100 µM | 0.815 | 0.635 | 0.556 | 0.453 | 0.369 | 0.317 | 0.291 | 0.248 | 0.229

relative JC-1 red fluorescence
Details | 8 h | 16 h | 24 h | 32 h | 40 h | 48 h | 56 h | 64 h | 72 h
10 µM, coculture fibroblast: C12385 | 0.7702 | 0.7138 | 0.665 | 0.576 | 0.519 | 0.487 | 0.451 | 0.423 | 0.4087
10 µM, coculture fibroblast: H6013 | 0.8335 | 0.825 | 0.81 | 0.785 | 0.76 | 0.751 | 0.726 | 0.72 | 0.692
10 µM, coculture fibroblast: H6019 | 0.7785 | 0.717 | 0.682 | 0.608 | 0.576 | 0.552 | 0.527 | 0.519 | 0.501
10 µM, coculture fibroblast: H6076 | 0.928 | 0.897 | 0.846 | 0.783 | 0.689 | 0.674 | 0.656 | 0.642 | 0.622
10 µM, coculture fibroblast: H6231 | 0.955 | 0.92 | 0.829 | 0.719 | 0.626 | 0.603 | 0.549 | 0.526 | 0.496
10 µM, coculture fibroblast: HADF | 0.888 | 0.815 | 0.787 | 0.736 | 0.685 | 0.662 | 0.634 | 0.618 | 0.584
10 µM, coculture fibroblast: HCFa | 0.862 | 0.86 | 0.838 | 0.801 | 0.739 | 0.728 | 0.704 | 0.685 | 0.646
10 µM, coculture fibroblast: HCPF | 0.914 | 0.866 | 0.807 | 0.751 | 0.6484 | 0.618 | 0.594 | 0.554 | 0.507
10 µM, coculture fibroblast: HHSteC | 0.893 | 0.901 | 0.866 | 0.786 | 0.701 | 0.657 | 0.617 | 0.577 | 0.542
10 µM, coculture fibroblast: HMF | 0.9358 | 0.926 | 0.867 | 0.805 | 0.704 | 0.673 | 0.647 | 0.613 | 0.588
10 µM, coculture fibroblast: HPFa | 0.8984 | 0.8722 | 0.829 | 0.763 | 0.725 | 0.69 | 0.646 | 0.627 | 0.585
10 µM, coculture fibroblast: HUF | 0.846 | 0.772 | 0.7625 | 0.66 | 0.589 | 0.5546 | 0.511 | 0.492 | 0.479
10 µM, coculture fibroblast: Hs27A | 0.935 | 0.923 | 0.888 | 0.843 | 0.805 | 0.808 | 0.794 | 0.778 | 0.737
10 µM, coculture fibroblast: Hs343T | 0.916 | 0.872 | 0.8138 | 0.777 | 0.6755 | 0.661 | 0.6217 | 0.5972 | 0.577
10 µM, coculture fibroblast: WS1 | 0.7825 | 0.709 | 0.644 | 0.587 | 0.51 | 0.488 | 0.45 | 0.427 | 0.414
100 µM, coculture fibroblast: C12385 | 0.771 | 0.5702 | 0.376 | 0.226 | 0.169 | 0.143 | 0.117 | 0.102 | 0.0885
100 µM, coculture fibroblast: H6013 | 0.778 | 0.425 | 0.303 | 0.258 | 0.228 | 0.2 | 0.173 | 0.156 | 0.126
100 µM, coculture fibroblast: H6019 | 0.7658 | 0.4487 | 0.318 | 0.215 | 0.176 | 0.156 | 0.141 | 0.132 | 0.12
100 µM, coculture fibroblast: H6076 | 0.831 | 0.577 | 0.406 | 0.351 | 0.299 | 0.273 | 0.24 | 0.206 | 0.183
100 µM, coculture fibroblast: H6231 | 0.874 | 0.612 | 0.416 | 0.374 | 0.294 | 0.259 | 0.21 | 0.186 | 0.168
100 µM, coculture fibroblast: HADF | 0.833 | 0.449 | 0.292 | 0.229 | 0.191 | 0.163 | 0.133 | 0.122 | 0.0926
100 µM, coculture fibroblast: HCFa | 0.857 | 0.743 | 0.609 | 0.519 | 0.442 | 0.394 | 0.352 | 0.324 | 0.276
100 µM, coculture fibroblast: HCPF | 0.9263 | 0.712 | 0.455 | 0.374 | 0.296 | 0.268 | 0.253 | 0.201 | 0.176
100 µM, coculture fibroblast: HHSteC | 0.847 | 0.465 | 0.342 | 0.289 | 0.256 | 0.227 | 0.204 | 0.182 | 0.155
100 µM, coculture fibroblast: HMF | 0.91 | 0.666 | 0.431 | 0.3853 | 0.3202 | 0.283 | 0.2476 | 0.213 | 0.189
100 µM, coculture fibroblast: HPFa | 0.836 | 0.854 | 0.687 | 0.528 | 0.458 | 0.412 | 0.368 | 0.342 | 0.295
100 µM, coculture fibroblast: HUF | 0.844 | 0.786 | 0.762 | 0.563 | 0.427 | 0.366 | 0.311 | 0.28 | 0.255
100 µM, coculture fibroblast: Hs27A | 0.949 | 0.854 | 0.404 | 0.269 | 0.218 | 0.198 | 0.165 | 0.15 | 0.109
100 µM, coculture fibroblast: Hs343T | 0.851 | 0.554 | 0.412 | 0.357 | 0.297 | 0.267 | 0.227 | 0.192 | 0.177
100 µM, coculture fibroblast: WS1 | 0.6705 | 0.38937 | 0.25 | 0.155 | 0.112 | 0.0923 | 0.0753 | 0.062 | 0.0495

Values are relative to the signal before dosing, not to a vehicle control; the signal also falls without drug.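 Fibroblast labels denote human fibroblasts, mainly primary ones from uterus (C12385, HUF), lung (H6013), bone (Hs27A), adrenal (HADF) and skin (WS1), plus mammary HMF and breast cancer-associated Hs343T. Cancer cells are basal-like or mesenchymal-like triple-negative breast cancer lines. A hit is a response shift exceeding 3x replicate standard deviation. The tissue of the other fibroblasts is not given here.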
